Source: paper PMC3281842, “Crystal Structure of TDRD3 and Methyl-Arginine Binding Characterization of TDRD3, SMN and SPF30” (PLoS ONE, 2012)
No constants are given. Whether binding was seen depends on the method and setting. For some of these results: Tags and fused reporters may be left off the sequences shown.

The chains behind the UniProt entries cited, without tags or fusion partners. Residues count along the entry.
UniProt Q16637, residues 80-170: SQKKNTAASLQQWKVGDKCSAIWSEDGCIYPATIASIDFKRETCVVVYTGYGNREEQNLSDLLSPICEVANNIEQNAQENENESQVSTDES
UniProt Q9H7E2, residues 520-633: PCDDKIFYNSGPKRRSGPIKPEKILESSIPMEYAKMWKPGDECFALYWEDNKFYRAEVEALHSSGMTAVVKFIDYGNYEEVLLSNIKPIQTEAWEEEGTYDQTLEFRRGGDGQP

Experiments:
Histone H3K4me2 = target: T1, Histone H3K4me2; experiment: fluorescence polarisation; fluorescein-labeled peptides; 20 mM Tris pH 7.5, 50 mM NaCl, 1 mM DTT, 0.01% Triton X-100; 25°C; one-site binding model; Kd the average of three independent measurements; both purified
T1 sequence (peptide, dimethyllysine at K4; fluorescein label (position not stated)): ARTKQTARKST

Histone H3K9me3 = target: T2, Histone H3K9me3; experiment: as above
T2 sequence (peptide, trimethyllysine at K9; fluorescein label (position not stated)): ARTKQTARKSTGGKA

Histone H3K4me1 = target: T3, Histone H3K4me1; experiment: as above
T3 sequence (peptide, monomethyllysine at K4; fluorescein label (position not stated)): ARTKQTARKST

Histone H3K9me2 = target: T4, Histone H3K9me2; experiment: as above
T4 sequence (peptide, dimethyllysine at K9; fluorescein label (position not stated)): ARTKQTARKSTGGKA

Histone H3K9me1 = target: T5, Histone H3K9me1; experiment: as above
T5 sequence (peptide, monomethyllysine at K9; fluorescein label (position not stated)): ARTKQTARKSTGGKA

Histone H3K4me3 = target: T6, Histone H3K4me3; experiment: as above
T6 sequence (peptide, trimethyllysine at K4; fluorescein label (position not stated)): ARTKQTARKST

H4R3me2a = target: T7, H4R3me2a; experiment: ITC; 20 mM Tris pH 8.0, 200 mM NaCl; 25°C; one-site binding model; both purified
T7 sequence (peptide, asymmetric dimethylarginine at R3): SGRGKGGK

Row | binding (Histone H3K4me2) | binding (Histone H3K9me3) | binding (Histone H3K4me1) | binding (Histone H3K9me2) | binding (Histone H3K9me1) | binding (Histone H3K4me3) | binding (H4R3me2a) | Substance
1 | no binding | no binding | no binding | no binding | no binding | no binding | – | SMN (aa 80–170) (from UniProt Q16637 80-170) (domain or fragment)
2 | no binding | no binding | no binding | no binding | no binding | no binding | no binding | TDRD3 (aa 520–633) (from UniProt Q9H7E2 520-633) (domain or fragment)
